The match of structure and compound is tentative.
Columns and labels:
BCL-2/BAK = BCL-2/BAK (Homo sapiens, UniProt P10415); experiment: Screening on inhibitory activity for BCL-2/BAK binding (Cisbio HTRF kit); settings: read-out: BCL-2/BAK IC50
RS4;11 cells = experiment: Inhibitory effect on proliferation of RS4;11 cells (CCK-8); type: cell-based, human; settings: read-out: RS4;11 cells IC50, 72 h
BCL-XL/BAK = BCL-XL/BAK (Homo sapiens, UniProt Q07817); experiment: Screening on inhibitory activity for BCL-XL/BAK binding (Cisbio HTRF kit); settings: read-out: BCL-XL/BAK IC50

Sequences of proteins named here, by UniProt entry; tags and fusion partners are left off.
UniProt P10415, whole entry: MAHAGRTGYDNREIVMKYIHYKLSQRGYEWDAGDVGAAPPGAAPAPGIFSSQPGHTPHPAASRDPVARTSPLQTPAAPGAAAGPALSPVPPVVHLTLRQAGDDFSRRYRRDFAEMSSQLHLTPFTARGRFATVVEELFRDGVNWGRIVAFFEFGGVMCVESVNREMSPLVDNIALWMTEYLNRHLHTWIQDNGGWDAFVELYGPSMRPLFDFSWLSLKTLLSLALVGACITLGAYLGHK
UniProt Q07817, whole entry: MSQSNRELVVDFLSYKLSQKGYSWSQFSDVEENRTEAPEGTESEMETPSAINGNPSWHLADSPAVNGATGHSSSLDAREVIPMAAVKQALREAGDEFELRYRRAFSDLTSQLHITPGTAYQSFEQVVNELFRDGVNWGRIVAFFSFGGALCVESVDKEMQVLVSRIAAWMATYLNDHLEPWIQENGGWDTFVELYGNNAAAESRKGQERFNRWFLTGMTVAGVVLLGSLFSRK

SMILES: CC1(C)CCC(CN2CCN(c3ccc(C(=O)NS(=O)(=O)c4ccc(NCC5CN(C(=O)C6CC6)CCO5)c([N+](=O)[O-])c4)c(Oc4cnc5[nH]ccc5c4)c3)CC2)=C(c2ccc(C(F)(F)F)cc2Cl)C1 (centres unmarked)
- IC50 (BCL-2/BAK): 2.1 nM
- IC50 (RS4;11 cells): 1.3 nM

SMILES: CC1(C)CCC(CN2CCN(c3ccc(C(=O)NS(=O)(=O)c4ccc(NCC5CN(S(=O)(=O)C6CC6)CCO5)c([N+](=O)[O-])c4)c(Oc4cnc5[nH]ccc5c4)c3)CC2)=C(c2ccc(C(F)(F)F)cc2Cl)C1 (centres unmarked)
- IC50 (BCL-2/BAK): 3.7 nM
- IC50 (BCL-XL/BAK): 266 nM
- IC50 (RS4;11 cells): 3 nM

SMILES: CC1(C)CCC(CN2CCN(c3ccc(C(=O)NS(=O)(=O)c4ccc(NCC5CN(S(=O)(=O)C6CCC6)CCO5)c([N+](=O)[O-])c4)c(Oc4cnc5[nH]ccc5c4)c3)CC2)=C(c2ccc(C(F)(F)F)cc2Cl)C1 (centres unmarked)
- IC50 (BCL-2/BAK): 4.6 nM
- IC50 (BCL-XL/BAK): 485 nM
- IC50 (RS4;11 cells): 3 nM

Source: patent publication US20250257064A1, “TRIFLUOROMETHYL-SUBSTITUTED SULFONAMIDE AS BCL-2-SELECTIVE INHIBITOR” (Chia Tai Tianqing Pharmaceutical Group Co., Ltd., priority 2018, published 2025)
